{
  "sequences": {"note": "Protein sequences, listed by entry. Tags and fused reporters are not part of them.", "UniProt Q0JBA9, entry or part of it": "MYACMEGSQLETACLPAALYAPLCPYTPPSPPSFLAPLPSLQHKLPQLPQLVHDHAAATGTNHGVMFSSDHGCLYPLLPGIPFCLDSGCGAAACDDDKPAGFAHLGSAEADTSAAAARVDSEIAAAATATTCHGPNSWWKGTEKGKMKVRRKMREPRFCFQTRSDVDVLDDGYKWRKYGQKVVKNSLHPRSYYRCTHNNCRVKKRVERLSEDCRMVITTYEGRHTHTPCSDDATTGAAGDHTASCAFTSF"},
  "source": "paper PMC7819943",
  "about": "“Rice protein-binding microarrays: a tool to detect cis-acting elements near promoter regions in rice”",
  "note": "The list shows a part of the results.",
  "data": [
    {"biological_target": "OsWRKY34 (Oryza sativa, UniProt Q0JBA9 1-250)", "experiment": "protein-binding microarray (RPBM); PBS, 2% BSA, 51.3 ng/ul salmon testes DNA, 50 uM zinc acetate, 200 nM TF, 25 C, 1 h; high values mean tight binding", "conditions": "protein: recombinant; tags: N-terminal polyhistidine and DsRed monomer fusion (pET32a); label: CyDye5-dUTP incorporated in the synthesized complementary strand; 3' TTTTT single-stranded linker to array surface; dsDNA, one strand shown", "in_short": "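For the binding signal, per-feature fluorescence intensity was read in arbitrary units on an Axon 4000B scanner. Before scanning, a 2% BSA-blocked custom Agilent array made double-stranded with Cy5-dUTP was washed after 1 h at 25 °C with 200 nM protein and 50 µM zinc acetate. The proteins were Ni–NTA-purified transcription factors with N-terminal polyhistidine and DsRed fusions, expressed in E. coli BL21-CodonPlus.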", "values": [
      {"sequence": "CACCGAGAGCTCTCCCGCTCCACTCGCCGCACACCACCACCGGAGTCACCTAGTGCAG", "binding signal": "10500 fluorescence intensity (a.u.)"},
      {"sequence": "TTCGTGTGGAGGCCCACGCTATCCTGCGATTCCACCATATCGGAGTCACCTAGTGCAG", "binding signal": "8390 fluorescence intensity (a.u.)"},
      {"sequence": "TTTTCTTAGCGGTTTTATTGTTTCTAACCAAGTTATAATTCGGAGTCACCTAGTGCAG", "binding signal": "8180 fluorescence intensity (a.u.)"},
      {"sequence": "AAAGTTCAAATAATATTTGCAACTTTTTTCATGATCGTTTCGGAGTCACCTAGTGCAG", "binding signal": "8860 fluorescence intensity (a.u.)"},
      {"sequence": "TTTTTTACCCTGTCAAAAACGTACATGATGCTTTTCACTGCGGAGTCACCTAGTGCAG", "binding signal": "8170 fluorescence intensity (a.u.)"},
      {"sequence": "AACATCATCTTTGCCTCTTTTGGACCATCATGACACTTATCGGAGTCACCTAGTGCAG", "binding signal": "11800 fluorescence intensity (a.u.)"},
      {"sequence": "ATATCATTCTCTCTCTCTCGTATCCCTTCTCTCTTTCCCCCGGAGTCACCTAGTGCAG", "binding signal": "9350 fluorescence intensity (a.u.)"},
      {"sequence": "AACACCGCCGTCTCCGTGGCCACCGCCGCCGCCGCCGCTCCGGAGTCACCTAGTGCAG", "binding signal": "12400 fluorescence intensity (a.u.)"},
      {"sequence": "TTTCATGTCAATAAAGCTAATGGCCTGTTCACTTTGATGCCGGAGTCACCTAGTGCAG", "binding signal": "8440 fluorescence intensity (a.u.)"},
      {"sequence": "AAACCCTTTTTCCCAACCCATCTCCCTCATTTTTCGCGCGCGGAGTCACCTAGTGCAG", "binding signal": "11300 fluorescence intensity (a.u.)"},
      {"sequence": "AAATGTCAAGTTGCATCACATCGTCGTCATTGACACTATTCGGAGTCACCTAGTGCAG", "binding signal": "8670 fluorescence intensity (a.u.)"},
      {"sequence": "CACAATAGACCACCCGAAACCACATCTTCAACACTTCAATCGGAGTCACCTAGTGCAG", "binding signal": "8530 fluorescence intensity (a.u.)"},
      {"sequence": "TTTCTCACATGTTTGACCGTTTGTCTTATTTAAAAAATTTCGGAGTCACCTAGTGCAG", "binding signal": "8770 fluorescence intensity (a.u.)"},
      {"sequence": "AGTCTGGATTCTTGGAGGTCAACTTTGGTCAACGGTGGGGCGGAGTCACCTAGTGCAG", "binding signal": "14200 fluorescence intensity (a.u.)"},
      {"sequence": "TGAGCTTCACGTAGATCTCATCGTCGTTGTCCACCACGTCCGGAGTCACCTAGTGCAG", "binding signal": "8650 fluorescence intensity (a.u.)"},
      {"sequence": "GGCCACCATGAGCTCTCCTTTCTTTGTTCTTCTCTTCTGACGGAGTCACCTAGTGCAG", "binding signal": "10300 fluorescence intensity (a.u.)"},
      {"sequence": "TTTGTTTCTTGTTCTAGAGGGTTTCCTAAGGTGTTTAGGACGGAGTCACCTAGTGCAG", "binding signal": "9940 fluorescence intensity (a.u.)"},
      {"sequence": "GACGTGGTGTTGGGCTAGTTATTTCTTCCAGGGGTACAATCGGAGTCACCTAGTGCAG", "binding signal": "12600 fluorescence intensity (a.u.)"},
      {"sequence": "GCTTCGGCTTCGGCGACCCTACCACCAACATCATCGCCAACGGAGTCACCTAGTGCAG", "binding signal": "8690 fluorescence intensity (a.u.)"},
      {"sequence": "CCGGGACTGCTTCGCCGCCTCCGTGATCACCCTGTTCGCCCGGAGTCACCTAGTGCAG", "binding signal": "8070 fluorescence intensity (a.u.)"},
      {"sequence": "GGATCGCGTGGTTTGTGTCGTGTCTTTGCATACGGCGACACGGAGTCACCTAGTGCAG", "binding signal": "8300 fluorescence intensity (a.u.)"},
      {"sequence": "GGTGTGAAGTGCGATTCTGTTAAGTAGTTTGTTACCCGGCCGGAGTCACCTAGTGCAG", "binding signal": "8290 fluorescence intensity (a.u.)"},
      {"sequence": "GTTTCACAATCCTCTGTTTTACAATTGTATTCCTGCCAGACGGAGTCACCTAGTGCAG", "binding signal": "9040 fluorescence intensity (a.u.)"},
      {"sequence": "CCCTTCTTTTTCTTCCTTTCTCAACCACACACAGCAGTACCGGAGTCACCTAGTGCAG", "binding signal": "9370 fluorescence intensity (a.u.)"},
      {"sequence": "CATCTCAAGTTAGCATGCGAGTTTTTTTTTAAAGTATTTCCGGAGTCACCTAGTGCAG", "binding signal": "9710 fluorescence intensity (a.u.)"},
      {"sequence": "GTCACTACACGTTAAGTGTCACCTTCCACTCGGAACTACTCGGAGTCACCTAGTGCAG", "binding signal": "8520 fluorescence intensity (a.u.)"},
      {"sequence": "GGTTGCTTGGATACCAACATTTATCATACTTTTTTTGAATCGGAGTCACCTAGTGCAG", "binding signal": "9280 fluorescence intensity (a.u.)"},
      {"sequence": "GCCACTGGACGCCAACTTTGTCTCCAGCTATTTGACCAGGCGGAGTCACCTAGTGCAG", "binding signal": "9000 fluorescence intensity (a.u.)"},
      {"sequence": "GGCAATTCCTGTGTTTTTCCTGTGTTTTATAAAACTCTGACGGAGTCACCTAGTGCAG", "binding signal": "8560 fluorescence intensity (a.u.)"},
      {"sequence": "CTATGTGTACTAACATTTTTTTTACTTTTTCATAAATTTACGGAGTCACCTAGTGCAG", "binding signal": "8370 fluorescence intensity (a.u.)"},
      {"sequence": "AGACTTTGGCTAACAGGCGTTTTCCTAATTACTGCTACAGCGGAGTCACCTAGTGCAG", "binding signal": "8130 fluorescence intensity (a.u.)"},
      {"sequence": "GTTGTGAGGAAAGGCGTATTTTCGTGAATCCCGTGTTTATCGGAGTCACCTAGTGCAG", "binding signal": "8250 fluorescence intensity (a.u.)"},
      {"sequence": "TTCTTGACGACGCAAACGTGCTTGAGCTTTCACCAACCCGCGGAGTCACCTAGTGCAG", "binding signal": "8340 fluorescence intensity (a.u.)"},
      {"sequence": "CCCATGTCTGCTTAACTTTTTATGCATAGTTTTCTTTGAACGGAGTCACCTAGTGCAG", "binding signal": "10800 fluorescence intensity (a.u.)"},
      {"sequence": "CTGCTTGGTGCTGCCGGCTACTATATCTTGATGCTTTGTTCGGAGTCACCTAGTGCAG", "binding signal": "11700 fluorescence intensity (a.u.)"},
      {"sequence": "CCTCTTTTCTTTTTCTTCCGGCCTCTCCTTCCAAAAGCCTCGGAGTCACCTAGTGCAG", "binding signal": "10500 fluorescence intensity (a.u.)"},
      {"sequence": "GCCCAAGCCTCACAAGGTCCAGCTACCATCCGCCGCTCCTCGGAGTCACCTAGTGCAG", "binding signal": "8590 fluorescence intensity (a.u.)"},
      {"sequence": "GCCTTATGTTAGCGTTTTGTGTCGGCCACTTGTGTAACTACGGAGTCACCTAGTGCAG", "binding signal": "8540 fluorescence intensity (a.u.)"},
      {"sequence": "TAAGCTGTACGGGAAGGGTTGACGTTCTCATTGTTATTCCCGGAGTCACCTAGTGCAG", "binding signal": "8430 fluorescence intensity (a.u.)"},
      {"sequence": "CGCCACTAGATTTTTTCCCGTCTCGTGCCATTGACTCGCGCGGAGTCACCTAGTGCAG", "binding signal": "11200 fluorescence intensity (a.u.)"},
      {"sequence": "AGAGTGTCAGACAGACGGGTGGGCAACTGGGGCGACGATGCGGAGTCACCTAGTGCAG", "binding signal": "9930 fluorescence intensity (a.u.)"},
      {"sequence": "TATATACCGCTGCAATGCTCGCTAGCTTAGCTAAGCAACTCGGAGTCACCTAGTGCAG", "binding signal": "8450 fluorescence intensity (a.u.)"},
      {"sequence": "ACAACACATCATTGACACACAACTATACCAACGTTCTATCCGGAGTCACCTAGTGCAG", "binding signal": "8490 fluorescence intensity (a.u.)"},
      {"sequence": "TTCACCGAGGTTCCGCTCCGCTCCGCTCGTCTGCGGATCGCGGAGTCACCTAGTGCAG", "binding signal": "8130 fluorescence intensity (a.u.)"},
      {"sequence": "TTACTTCTCCTTTGCTATATACGCTCTAAGGCTGCGTTTTCGGAGTCACCTAGTGCAG", "binding signal": "8260 fluorescence intensity (a.u.)"},
      {"sequence": "CTGGTGTCCATGGTTTTTTCTCTTATGCTTTGGCAGGATTCGGAGTCACCTAGTGCAG", "binding signal": "8510 fluorescence intensity (a.u.)"},
      {"sequence": "GTGTCCATGCTGCTTGTTTCTTTCATGGTTAAGCCATTTTCGGAGTCACCTAGTGCAG", "binding signal": "13400 fluorescence intensity (a.u.)"},
      {"sequence": "TAATATTACTTATTTTTAATTCCGAATTTCAGCTATTTTTCGGAGTCACCTAGTGCAG", "binding signal": "8760 fluorescence intensity (a.u.)"},
      {"sequence": "TTTCGCTTTTTGCTAGAGATCTAGCCACTTTCTTTGATCGCGGAGTCACCTAGTGCAG", "binding signal": "8600 fluorescence intensity (a.u.)"},
      {"sequence": "AGTTGCACCATGCCCACCATTCTTCTGCTATACCCCATGACGGAGTCACCTAGTGCAG", "binding signal": "10400 fluorescence intensity (a.u.)"},
      {"sequence": "TTTTCTTTTTTCCCGCACTTTCTTTTCTTCCCGGAGATGTCGGAGTCACCTAGTGCAG", "binding signal": "8400 fluorescence intensity (a.u.)"},
      {"sequence": "TTTTTTTTTCATTAATTTGCGGCCCTTTGTGCAAGCTGCACGGAGTCACCTAGTGCAG", "binding signal": "8090 fluorescence intensity (a.u.)"},
      {"sequence": "AACTGTCCCAATCTATTCTCTCCTTATCTCCTCTCCTCCTCGGAGTCACCTAGTGCAG", "binding signal": "8120 fluorescence intensity (a.u.)"},
      {"sequence": "ATTATGCCCCTTATTACATTTCAGCCTACAGCGATCTACCCGGAGTCACCTAGTGCAG", "binding signal": "8140 fluorescence intensity (a.u.)"}
    ]}
  ]
}
